Assay results: patent US20090214654A1, “TREATMENT OF ANEURYSM WITH APPLICATION OF CONNECTIVE TISSUE STABILIZATION AGENT IN COMBINATION WITH A DELIVERY VEHICLE” (priority 2008, published 2009)
At least one compound was matched to its structure with a doubt left.

Columns and labels:
fresh aorta = assay: Resistance of treated fresh aorta to elastase digestion; conditions: 0.3% TA or 0.15% PGG (equimolar); accelerated digestion
Experimental: Resistance to elastase digestion was tested using fresh, untreated aorta and aorta treated with 0.3% TA or 0.15% PGG (equimolar concentrations). […] The differences between digestive values in TA and PGG samples were not significant (p>0.05). This is an accelerated digestion study, where high concentrations of enzyme were used. Such high enzyme activities are not expected to occur in vivo.

[1] = system: aneurysmal aortas of rats; assay: CaCl2 abdominal aortic aneurysm progression model, PGG applied to aneurysmal aorta at day 28; assay type: in vivo, rat
Experimental: Using the same perivascular CaCl2 aortic injury model described earlier, the ability of PGG to halt the progression of growing aneurysms was evaluated. By applying PGG to healthy abdominal aorta immediately before the CaCl2-based aneurysm induction, the previously mentioned in vivo experiment essentially evaluated the effect of PGG on aneurysm formation. However, in order to create a more clinically relevant scenario, PGG was also applied to abdominal aortas of rats which were aneurysmal to investigate PGG's ability to hinder or halt aneurysm progression. In order to do this, rat aortas were treated with calcium chloride, the animals were closed, and AAA was allowed to develop for 28 days. At this time point, the aneurysmal aortas were exposed by a second surgery, and PGG was applied perivascularly using gauze. As a control, saline was applied by the same means to the remaining aneurysmal aortas. AAA progression was followed for another 28 days in both groups. A progressive diameter increase, reaching a mean 47.1±11% increase at 56 days, was measured in the control group (n=11) and the results were illustrated in FIG. 13.

porcine aorta = assay: PGG protection of partially elastase-degraded aorta against a second round of elastase; conditions: first round 20 U/mL elastase 24 hrs; 0.1% PGG 30 minutes 37°C; second round 5 U/mL 48 hrs
porcine carotid arteries = assay: In vitro elastase digestion of treated carotid arteries; conditions: treated 20 minutes; 0.6% (w/v) Glut, 0.15% (w/v) PGG, alone or as cocktail; elastase 24 hrs, 37°C
Experimental: Tissue resistance to elastase degradation after treatment with various reagents is studied. Specifically, porcine carotid arteries were treated with saline (control, for 20 minutes), Glutaraldehyde (Glut) (for 20 minutes), PGG (for 20 minutes), or a combination of the two (Glut+PGG for 20 minutes, or Glut for 10 minutes followed by a separate incubation with PGG for 10 minutes). Concentrations of the reagents used were 0.6% (w/v) for Glut, 0.15% (w/v) for PGG and 9 g/L for physiological saline.
The treated tissue was then exposed to an in vitro elastase digestion assay to subject the treated tissue to digestion for 24 hrs. All experiments were conducted at 37° C. Because the values shown are percentage of digestion, the lower the value, the better the reagent used preformed in resisting elastase degradation. […] It should be noted that the digestion model used in this experiment is a very accelerated and aggressive digestion model.

[2] = system: abdominal aortic aneurysms in rats; assay type: in vivo, rat; conditions: 28 days after injury
Experimental: Pelivascular application of calcium chloride (CaCl2) to the infrarenal abdominal aorta of rodents is an accepted rat aneurysm model. It involves exposure of the abdominal aorta through a midline incision, using gauze to apply CaCl2 solution directly onto the aorta for 15 minutes, followed by surgical closure. Using this aneurysm model, we evaluated the effect of a single PGG application on development of abdominal aortic aneurysms in rats. For this study, we exposed the abdominal aorta in adult rats (n=12), measured the aorta diameter using digital photography and applied a 0.03% PGG solution in saline for 15 minutes using soaked gauze. After rinsing in saline, we induced aortic injury with the 15-minute application of 0.5 mol/L CaCl2 solution. Control rats (n=12) were treated with saline for 15 minutes, rinsed and then treated with 0.5 mol/L CaCl2 solution for 15 minutes. After 28 days, we re-exposed the abdominal aorta under general anesthesia, measured the external diameter, then euthanized the rats and collected the aorta for analysis. […] Along with aortic dilatation, perivascular application of CaCl2 induced major changes in vascular elastin content and integrity as shown by analysis of desmosine, an amino acid which is specific to elastin, as well as histology, all shown in FIG. 12.

Which “resistance of aorta to elastase (digestion values vs untreated fresh aorta)” value (fresh aorta) does the source give for `O=C(OC[C@H]1O[C@@H](OC(=O)c2cc(O)c(O)c(O)c2)[C@H](OC(=O)c2cc(O)c(O)c(O)c2)[C@@H](OC(=O)c2cc(O)c(O)c(O)c2)[C@@H]1OC(=O)c1cc(O)c(O)c(O)c1)c1cc(O)c(O)c(O)c1` [PGG, penta-galloylglucose] here?
Its value is “dramatically increased resistance”.

And the “histology of elastic laminae and tissue architecture” value ([1]; 56 days after injury)?
The value was “improved preservation of elastic laminar integrity and waviness”.

And the “change in mean aortic diameter at 56 days compared with day 28” value ([1]; PGG applied perivascularly with gauze at day 28, n=11)?
The value was “no increase in mean diameter”.

What about the “effectiveness in resisting further elastolytic degradation (percent mass loss, second round) vs saline” value (porcine aorta) of the same compound?
The value was “some improvement”.

What about the “resistance of tissue to elastase degradation (percentage digestion) vs saline” value (porcine carotid arteries) of the same compound?
The value was “slightly improved”.

And the “histology of elastic laminae” value [2]?
The value was “excellent preservation of elastic laminae integrity and waviness”.
